Experimental data reported in the supplement of paper PMC3334620.
The full ranking holds about 33,000 sequences; the median of “E-score (-0.5 to 0.5)” is about -0.0059, and the highest 2% start at about 0.26. The list shows a part of the results.

What follows are sequences tested against T1, Cin5 (UniProt P40917) (assay: PBM E-score (8-mer binding enrichment) (E-score (-0.5 to 0.5)); higher = stronger / more preferred TF binding). Conditions: protein concentration: 100 nM; construct: GST-full length.
T1 sequence: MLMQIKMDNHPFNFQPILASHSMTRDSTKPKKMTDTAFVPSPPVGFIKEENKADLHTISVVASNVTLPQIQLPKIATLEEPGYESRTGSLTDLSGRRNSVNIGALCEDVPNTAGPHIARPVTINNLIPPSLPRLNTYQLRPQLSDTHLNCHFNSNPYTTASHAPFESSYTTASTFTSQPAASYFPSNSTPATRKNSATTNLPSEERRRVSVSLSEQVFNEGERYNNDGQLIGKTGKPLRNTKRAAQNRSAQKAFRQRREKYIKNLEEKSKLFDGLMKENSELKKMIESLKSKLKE
How it was run: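 GST-tagged yeast TFs (full-length or DNA-binding domain) were made by PURExpress in vitro transcription/translation and applied at about 100-200 nM to universal all-10-mer Agilent arrays. The arrays were made double-stranded by primer extension, on fresh or once-stripped slides. Bound protein was detected with fluorescent anti-GST, and scans were normalised with masliner. Each ungapped eight-base word, pooled with its reverse complement, received an E-score (modified Wilcoxon-Mann-Whitney statistic) from the Universal PBM Analysis Suite.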

Sequence | PBM E-score
CGGACATC | -0.181
AGTGGATC | 0.0279
ATATGGCG | 0.0981
GGTCAAGA | -0.0334
CGCGGACC | -0.0694
CCTACTAG | 0.0186
CAGGATCA | -0.0583
CAGGGTAA | 0.0479
AAAATAAC | 0.0095
AGCACACG | -0.156
CACGTGAA | 0.0749
AGCCCAAT | 0.033
CCACTGGG | -0.186
CCTTTGTA | -0.192
AGGCAATC | -0.0506
ACTTTTCA | 0.0559
ACGAATGC | 0.125
GTCGGCAC | -0.12
AAGTACGT | 0.103
CGGGATCA | -0.0535
ATCGCTTG | -0.121
GCCGAGAC | -0.0722

Sequence | PBM E-score
GCACTCCA | -0.111
ACTTTCAG | -0.0983
CACTCCGC | 0.0904
CATATCTC | 0.124
ACGATCAT | 0.0555
GGTACGAC | -0.169
CATCCCAA | 0.0478
CAGACAGA | 0.0973
GGCTACTA | 0.0982
CTCGATGC | 0.11
CCACAGAA | -0.0301
GAAAACGC | -0.153
ATTGGGTA | 0.0825
AATCGCAC | -0.0212
AACACGAT | 0.16
ATTTATTC | 0.119
GGTACATA | 0.114
GATCGATA | 0.147
ACTAGAAC | 0.0319
ACTTGCCA | -0.036
CTCATAGC | -0.189
AGGGGGAT | -0.278

Sequence | PBM E-score
GAATTTTA | 0.121
ATGTGAGG | 0.0534
ATTATAGA | 0.123
CACTTAGG | -0.226
CGGTTACG | 0.00513
CAGGGGAG | -0.212
CTCTTCGC | -0.051
AGGGTTCC | -0.0765
ACAATAAC | 0.143
CCGGCGAC | -0.0986
GCAACTCA | 0.00079
CTACCCAG | -0.0241
CCGCATCC | -0.109
TAGCCTGA | -0.204
CTGAAGCA | -0.0377
ACAAAAGG | -0.0977
GGCCCTTA | -0.0642
GGGCGAAA | 0.0331
ATTCTGCC | -0.0117
AATAGAAG | -0.0436
CAGAGACC | -0.221
AAGTTCTG | -0.0241

Sequence | PBM E-score
TAGCAGGA | -0.0847
CTTAGAAA | 0.0683
CTGCTCGC | -0.0429
CTGGATAC | 0.0106
CGCGCGGA | 0.107
CTCGCCTC | -0.246
AACCTCGG | 0.00292
GGTTAGAC | -0.021
AGAGACTG | -0.178
AGTTAGAT | 0.0471
ATCACCGC | -0.069
ACTCGCCA | 0.0272
ACCGAGCA | 0.0521
GGAATGCA | 0.124
ACGCGTTA | -0.0183
ACGAGTTG | 0.0131
GTTTATCA | 0.18
AAGGCCTT | -0.267
CGACTACC | -0.181
ATGCGACC | 0.203
GCATCCAA | -0.0577
ATGGTTAA | -0.0632

Sequence | PBM E-score
CTTGTTAC | -0.0236
CATTCGGG | 0.0795
AGCAAGTG | 0.015
AATTTATA | 0.249
CATGAAGG | 0.0872
ACTAGCTC | -0.0219
GCGCGTCA | 0.0483
CCGTCTCA | -0.0703
ATTGGAGG | -0.171
CCGTCGCA | -0.0427
CAATACGG | -0.036
ACGCGACT | -0.0732
ACGAGGAA | 0.187
GCGTGGTA | -0.1
ATCACCTC | -0.0112
GTAGGGGA | -0.0872
ATGCCAAT | -0.0392
AGCGTCCC | -0.0983
GAATAAAC | 0.105
CATCTTAG | 0.0266
GTTTACCA | -0.0695
